Results taken from paper PMC7721737, “Cytosolic sequestration of the vitamin D receptor as a therapeutic option for vitamin D-induced hypercalcemia” (Nature Communications, 2020).

The chains behind the UniProt entries cited, without tags or fusion partners.
UniProt F1LNJ2: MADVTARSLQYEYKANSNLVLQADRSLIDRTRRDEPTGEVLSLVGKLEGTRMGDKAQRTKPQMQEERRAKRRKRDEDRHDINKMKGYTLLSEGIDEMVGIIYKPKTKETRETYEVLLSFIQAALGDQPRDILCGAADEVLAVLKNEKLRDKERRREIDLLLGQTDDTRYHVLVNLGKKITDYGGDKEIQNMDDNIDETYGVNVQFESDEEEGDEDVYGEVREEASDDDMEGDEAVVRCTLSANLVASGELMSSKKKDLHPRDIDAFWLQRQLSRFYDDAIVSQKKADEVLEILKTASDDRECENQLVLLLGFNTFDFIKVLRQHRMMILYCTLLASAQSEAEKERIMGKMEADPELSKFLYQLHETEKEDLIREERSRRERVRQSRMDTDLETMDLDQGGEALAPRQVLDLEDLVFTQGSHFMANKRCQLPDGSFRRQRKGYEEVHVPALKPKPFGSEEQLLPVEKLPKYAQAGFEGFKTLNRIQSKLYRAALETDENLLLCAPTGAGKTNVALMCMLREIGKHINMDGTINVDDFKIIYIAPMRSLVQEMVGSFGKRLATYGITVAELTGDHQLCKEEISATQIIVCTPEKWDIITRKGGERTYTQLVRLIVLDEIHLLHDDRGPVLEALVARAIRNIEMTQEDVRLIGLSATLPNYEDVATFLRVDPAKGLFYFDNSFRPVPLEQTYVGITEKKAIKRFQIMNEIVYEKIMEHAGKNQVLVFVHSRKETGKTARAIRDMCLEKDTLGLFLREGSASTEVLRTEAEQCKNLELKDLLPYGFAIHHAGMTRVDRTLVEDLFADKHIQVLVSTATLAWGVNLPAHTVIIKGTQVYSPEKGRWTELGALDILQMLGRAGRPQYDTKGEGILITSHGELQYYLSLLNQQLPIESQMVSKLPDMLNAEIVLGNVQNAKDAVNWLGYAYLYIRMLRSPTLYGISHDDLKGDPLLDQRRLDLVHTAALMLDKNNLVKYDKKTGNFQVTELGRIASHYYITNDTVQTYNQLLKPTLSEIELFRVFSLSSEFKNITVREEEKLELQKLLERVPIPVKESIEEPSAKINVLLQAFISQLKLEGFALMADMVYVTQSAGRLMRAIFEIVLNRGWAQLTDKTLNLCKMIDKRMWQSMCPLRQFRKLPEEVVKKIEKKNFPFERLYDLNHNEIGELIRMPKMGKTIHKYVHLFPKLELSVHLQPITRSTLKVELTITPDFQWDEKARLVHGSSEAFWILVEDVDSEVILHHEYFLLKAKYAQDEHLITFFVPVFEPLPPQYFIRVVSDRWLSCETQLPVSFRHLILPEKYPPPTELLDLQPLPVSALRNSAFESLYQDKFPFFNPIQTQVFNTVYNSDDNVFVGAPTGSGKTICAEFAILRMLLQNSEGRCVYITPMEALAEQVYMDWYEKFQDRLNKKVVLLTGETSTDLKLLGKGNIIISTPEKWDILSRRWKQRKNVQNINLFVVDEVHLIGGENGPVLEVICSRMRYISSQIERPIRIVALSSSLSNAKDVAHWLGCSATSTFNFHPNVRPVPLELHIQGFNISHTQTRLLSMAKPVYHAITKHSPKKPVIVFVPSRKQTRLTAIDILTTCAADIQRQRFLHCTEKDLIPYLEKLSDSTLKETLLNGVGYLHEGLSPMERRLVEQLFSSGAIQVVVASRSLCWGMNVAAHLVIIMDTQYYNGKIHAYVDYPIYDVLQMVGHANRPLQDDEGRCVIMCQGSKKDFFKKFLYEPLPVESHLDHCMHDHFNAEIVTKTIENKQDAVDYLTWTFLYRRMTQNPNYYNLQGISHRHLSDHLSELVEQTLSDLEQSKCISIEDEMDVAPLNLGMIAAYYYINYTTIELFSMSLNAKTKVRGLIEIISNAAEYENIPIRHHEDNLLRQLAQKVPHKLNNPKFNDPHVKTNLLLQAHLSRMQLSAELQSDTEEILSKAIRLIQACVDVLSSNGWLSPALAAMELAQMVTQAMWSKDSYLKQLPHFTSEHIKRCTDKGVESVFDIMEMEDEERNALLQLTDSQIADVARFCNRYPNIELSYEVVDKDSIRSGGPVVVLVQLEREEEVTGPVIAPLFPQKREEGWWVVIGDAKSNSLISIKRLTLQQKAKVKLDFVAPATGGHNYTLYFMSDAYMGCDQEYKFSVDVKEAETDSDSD

T1: vitamin D receptor, endogenous in IEC-18 rat intestinal epithelial cells (rat (endogenous in IEC-18)) (UniProt P13053)
T1 sequence: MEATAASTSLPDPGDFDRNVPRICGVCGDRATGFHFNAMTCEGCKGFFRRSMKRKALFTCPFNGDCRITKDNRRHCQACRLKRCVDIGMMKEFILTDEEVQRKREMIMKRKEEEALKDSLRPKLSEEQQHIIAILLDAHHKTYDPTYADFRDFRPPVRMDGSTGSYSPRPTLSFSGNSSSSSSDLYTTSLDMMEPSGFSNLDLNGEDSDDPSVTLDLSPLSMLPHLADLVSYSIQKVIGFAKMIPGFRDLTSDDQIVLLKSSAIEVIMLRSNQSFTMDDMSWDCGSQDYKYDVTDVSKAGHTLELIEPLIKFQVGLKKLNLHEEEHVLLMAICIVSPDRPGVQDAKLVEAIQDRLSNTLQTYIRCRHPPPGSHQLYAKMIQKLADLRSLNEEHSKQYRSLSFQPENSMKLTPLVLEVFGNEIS


Key:
[1] = molecular target: T1, vitamin D receptor, endogenous in IEC-18 rat intestinal epithelial cells (rat (endogenous in IEC-18)); assay: affinity purification with mass spectrometry; anti-VDR immunoprecipitation of cytosolic extracts of IEC-18 cells treated for 1.5 h with 100 nM 1,25D3 and 1 µM ZK (compared to vehicle); IgG as negative control
[2] = molecular target: T1, vitamin D receptor, endogenous in IEC-18 rat intestinal epithelial cells (rat (endogenous in IEC-18)); assay: condition: only cells treated with 100 nM 1,25D3 alone; affinity purification with mass spectrometry; anti-VDR immunoprecipitation of cytosolic extracts of IEC-18 cells treated for 1.5 h with 100 nM 1,25D3 alone

binding [1] | binding [2] | Molecule
no binding | – | BRR2, endogenous in IEC-18 cells (from UniProt F1LNJ2 1-2139)
binds | no binding | WBP4, endogenous in IEC-18 rat intestinal epithelial cells (protein, UniProt Q5HZF2 1-374) MADYWKSQPKKFCDYCKCWIADNRPSVEFHERGKNHKENVARKISEIKQKSLDKAKEEEKASKEFAAMEAAALKAYQEDLKRLGLQSDISEPTISPVTNTVQPTPTANQQKEKKKKKKKKEASKGRWVEGVTADGHCYYYDLVTGASQWEKPEGFQGNLKKTAAKAIWVEGLSEDGYTYYYNTETGESKWEKPDDFIPHGGDVLSSKDSEKLPDTLEDSKSSDSHSDSDDEQKKAGEASAETKKLIIKFKEKNKSTEKRIGPEIQKEKTTPKQNPSNTNEEKPKTPKKSTNPYGEWQEIKQEAESQEEVDLELPSTENECLSSSEAGAGEIKVVFKEKTVSSLGVAADGVAPVFKKRRIENGKSRNLRQRGEDE

These are yes or no findings as the source states them, for the method shown. Binding seen in cells or lysates may run through a third protein. These calls come from enrichment with a bait or labelling near it, and not all partners need be listed. No binding means not detected with the bait.
